According to US20150302140A1, “IN SILICO IDENTIFICATION OF CANCER MOLECULAR SIGNALING PATHWAYS AND DRUG CANDIDATES” (H. LEE MOFFITT CANCER CENTER AND RESEARCH INSTITUTE, INC., priority 2012, published 2015):
For at least one compound, name, drawing or mass did not settle the structure.

System: five OVCA cell lines
Experiment: MTS assay, summary over five OVCA cell lines
Assay type: cell-based
Text: Ovarian cancer cell lines were either obtained from the European Collection of Cell Cultures, Salisbury, England (A2780S), or were kind gifts from Dr. Patricia Kruk, Department of Pathology, College of Medicine, University of South Florida, Tampa, Fla., and Susan Murphy, PhD, Dept of OB/GYN, Division of GYN Oncology, Duke University, Durham, N.C. (HeyA8, OVCAR2, OVCAR8, and OVCA420). Cell lines were maintained in RPMI-1640 (Invitrogen; Carlsbad, Calif.) supplemented with 10% fetal bovine serum (Fisher Scientific; Pittsburgh, Pa.), 1% sodium pyruvate, 1% penicillin/streptomycin, and 1% nonessential amino acids (HyClone; Hudson, N.H.). Mycoplasma testing was performed every 6 months following manufacturer's protocol (Lonza, Rockland, Me.).
The MTS assay was used to assess viability of the OVCA cell lines. […] Cell viability was analyzed using the CellTiter96® MTS assay kit (Promega, Madison, Wis.). […] After drug incubation, the optical density of each well was read at 490 nm using a SpectraMax 190 microplate reader (Molecular Devices Inc., Sunnyvale, Calif.). Percent cell survival was expressed as (control-treated)/(control-blank)×100. […]
The cytotoxic effects of continuous exposure to dasatinib and artesunate were assessed for five OVCA cell lines at 72 hours using the MTS assay (Table 5).

Cc1nc(Nc2ncc(C(=O)Nc3c(C)cccc3Cl)s2)cc(N2CCN(CCO)CC2)n1 [Dasatinib]
anti-proliferative activity against a panel of OVCA cells: significant anti-proliferative activity
